In the supplement of paper PMC10849652:
This is one part of the list.

By UniProt entry, the sequences of proteins in these tests, tags left out. Where a name states a change or a piece, a line headed by the entry shows the natural chain unless it says otherwise.
UniProt Q8TDH9: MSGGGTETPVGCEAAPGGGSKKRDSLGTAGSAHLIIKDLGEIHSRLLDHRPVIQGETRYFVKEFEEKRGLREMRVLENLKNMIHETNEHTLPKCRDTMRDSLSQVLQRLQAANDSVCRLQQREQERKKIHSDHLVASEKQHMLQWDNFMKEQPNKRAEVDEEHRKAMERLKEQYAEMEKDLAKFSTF
UniProt Q99933: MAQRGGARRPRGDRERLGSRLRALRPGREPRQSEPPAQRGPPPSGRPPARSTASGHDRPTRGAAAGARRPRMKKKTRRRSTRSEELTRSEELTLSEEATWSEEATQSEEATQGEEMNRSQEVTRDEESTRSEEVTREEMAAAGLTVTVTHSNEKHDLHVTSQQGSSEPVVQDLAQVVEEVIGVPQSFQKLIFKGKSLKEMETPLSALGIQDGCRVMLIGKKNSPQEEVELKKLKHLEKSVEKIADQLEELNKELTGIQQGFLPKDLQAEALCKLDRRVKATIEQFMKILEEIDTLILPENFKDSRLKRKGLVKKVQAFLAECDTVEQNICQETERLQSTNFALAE
UniProt Q6QNY1: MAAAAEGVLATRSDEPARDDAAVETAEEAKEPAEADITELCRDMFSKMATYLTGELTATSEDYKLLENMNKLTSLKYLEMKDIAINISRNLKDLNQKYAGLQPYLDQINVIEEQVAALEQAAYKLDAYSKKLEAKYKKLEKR
UniProt Q86WA6: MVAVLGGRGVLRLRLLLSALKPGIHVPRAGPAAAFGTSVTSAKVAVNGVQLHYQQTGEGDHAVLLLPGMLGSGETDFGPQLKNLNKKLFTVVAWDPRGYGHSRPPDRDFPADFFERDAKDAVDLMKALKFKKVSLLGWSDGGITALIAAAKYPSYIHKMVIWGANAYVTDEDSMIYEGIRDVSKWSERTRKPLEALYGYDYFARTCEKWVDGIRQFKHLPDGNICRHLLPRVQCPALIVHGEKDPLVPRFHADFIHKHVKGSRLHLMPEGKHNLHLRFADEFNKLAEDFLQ
UniProt Q9P287, whole entry, looked up: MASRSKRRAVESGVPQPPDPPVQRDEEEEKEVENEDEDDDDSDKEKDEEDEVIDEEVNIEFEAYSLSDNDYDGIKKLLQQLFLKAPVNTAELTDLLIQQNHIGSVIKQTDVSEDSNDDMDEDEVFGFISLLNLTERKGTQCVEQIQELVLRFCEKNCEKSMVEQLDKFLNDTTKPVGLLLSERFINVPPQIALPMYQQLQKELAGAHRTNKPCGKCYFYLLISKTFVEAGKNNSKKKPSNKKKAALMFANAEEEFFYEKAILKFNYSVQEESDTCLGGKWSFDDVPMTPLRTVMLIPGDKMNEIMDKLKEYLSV
UniProt Q9NXR7, whole entry, looked up: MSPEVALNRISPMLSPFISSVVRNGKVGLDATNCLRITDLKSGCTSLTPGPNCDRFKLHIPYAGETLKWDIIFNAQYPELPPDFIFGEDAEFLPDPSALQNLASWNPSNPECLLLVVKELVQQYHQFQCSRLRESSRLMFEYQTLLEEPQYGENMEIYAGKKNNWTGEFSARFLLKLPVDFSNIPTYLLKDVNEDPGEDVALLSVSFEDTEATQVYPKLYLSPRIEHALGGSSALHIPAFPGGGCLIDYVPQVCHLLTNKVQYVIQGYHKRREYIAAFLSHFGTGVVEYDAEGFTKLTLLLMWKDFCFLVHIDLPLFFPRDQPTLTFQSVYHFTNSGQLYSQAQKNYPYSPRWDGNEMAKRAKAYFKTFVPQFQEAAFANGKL
UniProt Q9NR09, whole entry, looked up: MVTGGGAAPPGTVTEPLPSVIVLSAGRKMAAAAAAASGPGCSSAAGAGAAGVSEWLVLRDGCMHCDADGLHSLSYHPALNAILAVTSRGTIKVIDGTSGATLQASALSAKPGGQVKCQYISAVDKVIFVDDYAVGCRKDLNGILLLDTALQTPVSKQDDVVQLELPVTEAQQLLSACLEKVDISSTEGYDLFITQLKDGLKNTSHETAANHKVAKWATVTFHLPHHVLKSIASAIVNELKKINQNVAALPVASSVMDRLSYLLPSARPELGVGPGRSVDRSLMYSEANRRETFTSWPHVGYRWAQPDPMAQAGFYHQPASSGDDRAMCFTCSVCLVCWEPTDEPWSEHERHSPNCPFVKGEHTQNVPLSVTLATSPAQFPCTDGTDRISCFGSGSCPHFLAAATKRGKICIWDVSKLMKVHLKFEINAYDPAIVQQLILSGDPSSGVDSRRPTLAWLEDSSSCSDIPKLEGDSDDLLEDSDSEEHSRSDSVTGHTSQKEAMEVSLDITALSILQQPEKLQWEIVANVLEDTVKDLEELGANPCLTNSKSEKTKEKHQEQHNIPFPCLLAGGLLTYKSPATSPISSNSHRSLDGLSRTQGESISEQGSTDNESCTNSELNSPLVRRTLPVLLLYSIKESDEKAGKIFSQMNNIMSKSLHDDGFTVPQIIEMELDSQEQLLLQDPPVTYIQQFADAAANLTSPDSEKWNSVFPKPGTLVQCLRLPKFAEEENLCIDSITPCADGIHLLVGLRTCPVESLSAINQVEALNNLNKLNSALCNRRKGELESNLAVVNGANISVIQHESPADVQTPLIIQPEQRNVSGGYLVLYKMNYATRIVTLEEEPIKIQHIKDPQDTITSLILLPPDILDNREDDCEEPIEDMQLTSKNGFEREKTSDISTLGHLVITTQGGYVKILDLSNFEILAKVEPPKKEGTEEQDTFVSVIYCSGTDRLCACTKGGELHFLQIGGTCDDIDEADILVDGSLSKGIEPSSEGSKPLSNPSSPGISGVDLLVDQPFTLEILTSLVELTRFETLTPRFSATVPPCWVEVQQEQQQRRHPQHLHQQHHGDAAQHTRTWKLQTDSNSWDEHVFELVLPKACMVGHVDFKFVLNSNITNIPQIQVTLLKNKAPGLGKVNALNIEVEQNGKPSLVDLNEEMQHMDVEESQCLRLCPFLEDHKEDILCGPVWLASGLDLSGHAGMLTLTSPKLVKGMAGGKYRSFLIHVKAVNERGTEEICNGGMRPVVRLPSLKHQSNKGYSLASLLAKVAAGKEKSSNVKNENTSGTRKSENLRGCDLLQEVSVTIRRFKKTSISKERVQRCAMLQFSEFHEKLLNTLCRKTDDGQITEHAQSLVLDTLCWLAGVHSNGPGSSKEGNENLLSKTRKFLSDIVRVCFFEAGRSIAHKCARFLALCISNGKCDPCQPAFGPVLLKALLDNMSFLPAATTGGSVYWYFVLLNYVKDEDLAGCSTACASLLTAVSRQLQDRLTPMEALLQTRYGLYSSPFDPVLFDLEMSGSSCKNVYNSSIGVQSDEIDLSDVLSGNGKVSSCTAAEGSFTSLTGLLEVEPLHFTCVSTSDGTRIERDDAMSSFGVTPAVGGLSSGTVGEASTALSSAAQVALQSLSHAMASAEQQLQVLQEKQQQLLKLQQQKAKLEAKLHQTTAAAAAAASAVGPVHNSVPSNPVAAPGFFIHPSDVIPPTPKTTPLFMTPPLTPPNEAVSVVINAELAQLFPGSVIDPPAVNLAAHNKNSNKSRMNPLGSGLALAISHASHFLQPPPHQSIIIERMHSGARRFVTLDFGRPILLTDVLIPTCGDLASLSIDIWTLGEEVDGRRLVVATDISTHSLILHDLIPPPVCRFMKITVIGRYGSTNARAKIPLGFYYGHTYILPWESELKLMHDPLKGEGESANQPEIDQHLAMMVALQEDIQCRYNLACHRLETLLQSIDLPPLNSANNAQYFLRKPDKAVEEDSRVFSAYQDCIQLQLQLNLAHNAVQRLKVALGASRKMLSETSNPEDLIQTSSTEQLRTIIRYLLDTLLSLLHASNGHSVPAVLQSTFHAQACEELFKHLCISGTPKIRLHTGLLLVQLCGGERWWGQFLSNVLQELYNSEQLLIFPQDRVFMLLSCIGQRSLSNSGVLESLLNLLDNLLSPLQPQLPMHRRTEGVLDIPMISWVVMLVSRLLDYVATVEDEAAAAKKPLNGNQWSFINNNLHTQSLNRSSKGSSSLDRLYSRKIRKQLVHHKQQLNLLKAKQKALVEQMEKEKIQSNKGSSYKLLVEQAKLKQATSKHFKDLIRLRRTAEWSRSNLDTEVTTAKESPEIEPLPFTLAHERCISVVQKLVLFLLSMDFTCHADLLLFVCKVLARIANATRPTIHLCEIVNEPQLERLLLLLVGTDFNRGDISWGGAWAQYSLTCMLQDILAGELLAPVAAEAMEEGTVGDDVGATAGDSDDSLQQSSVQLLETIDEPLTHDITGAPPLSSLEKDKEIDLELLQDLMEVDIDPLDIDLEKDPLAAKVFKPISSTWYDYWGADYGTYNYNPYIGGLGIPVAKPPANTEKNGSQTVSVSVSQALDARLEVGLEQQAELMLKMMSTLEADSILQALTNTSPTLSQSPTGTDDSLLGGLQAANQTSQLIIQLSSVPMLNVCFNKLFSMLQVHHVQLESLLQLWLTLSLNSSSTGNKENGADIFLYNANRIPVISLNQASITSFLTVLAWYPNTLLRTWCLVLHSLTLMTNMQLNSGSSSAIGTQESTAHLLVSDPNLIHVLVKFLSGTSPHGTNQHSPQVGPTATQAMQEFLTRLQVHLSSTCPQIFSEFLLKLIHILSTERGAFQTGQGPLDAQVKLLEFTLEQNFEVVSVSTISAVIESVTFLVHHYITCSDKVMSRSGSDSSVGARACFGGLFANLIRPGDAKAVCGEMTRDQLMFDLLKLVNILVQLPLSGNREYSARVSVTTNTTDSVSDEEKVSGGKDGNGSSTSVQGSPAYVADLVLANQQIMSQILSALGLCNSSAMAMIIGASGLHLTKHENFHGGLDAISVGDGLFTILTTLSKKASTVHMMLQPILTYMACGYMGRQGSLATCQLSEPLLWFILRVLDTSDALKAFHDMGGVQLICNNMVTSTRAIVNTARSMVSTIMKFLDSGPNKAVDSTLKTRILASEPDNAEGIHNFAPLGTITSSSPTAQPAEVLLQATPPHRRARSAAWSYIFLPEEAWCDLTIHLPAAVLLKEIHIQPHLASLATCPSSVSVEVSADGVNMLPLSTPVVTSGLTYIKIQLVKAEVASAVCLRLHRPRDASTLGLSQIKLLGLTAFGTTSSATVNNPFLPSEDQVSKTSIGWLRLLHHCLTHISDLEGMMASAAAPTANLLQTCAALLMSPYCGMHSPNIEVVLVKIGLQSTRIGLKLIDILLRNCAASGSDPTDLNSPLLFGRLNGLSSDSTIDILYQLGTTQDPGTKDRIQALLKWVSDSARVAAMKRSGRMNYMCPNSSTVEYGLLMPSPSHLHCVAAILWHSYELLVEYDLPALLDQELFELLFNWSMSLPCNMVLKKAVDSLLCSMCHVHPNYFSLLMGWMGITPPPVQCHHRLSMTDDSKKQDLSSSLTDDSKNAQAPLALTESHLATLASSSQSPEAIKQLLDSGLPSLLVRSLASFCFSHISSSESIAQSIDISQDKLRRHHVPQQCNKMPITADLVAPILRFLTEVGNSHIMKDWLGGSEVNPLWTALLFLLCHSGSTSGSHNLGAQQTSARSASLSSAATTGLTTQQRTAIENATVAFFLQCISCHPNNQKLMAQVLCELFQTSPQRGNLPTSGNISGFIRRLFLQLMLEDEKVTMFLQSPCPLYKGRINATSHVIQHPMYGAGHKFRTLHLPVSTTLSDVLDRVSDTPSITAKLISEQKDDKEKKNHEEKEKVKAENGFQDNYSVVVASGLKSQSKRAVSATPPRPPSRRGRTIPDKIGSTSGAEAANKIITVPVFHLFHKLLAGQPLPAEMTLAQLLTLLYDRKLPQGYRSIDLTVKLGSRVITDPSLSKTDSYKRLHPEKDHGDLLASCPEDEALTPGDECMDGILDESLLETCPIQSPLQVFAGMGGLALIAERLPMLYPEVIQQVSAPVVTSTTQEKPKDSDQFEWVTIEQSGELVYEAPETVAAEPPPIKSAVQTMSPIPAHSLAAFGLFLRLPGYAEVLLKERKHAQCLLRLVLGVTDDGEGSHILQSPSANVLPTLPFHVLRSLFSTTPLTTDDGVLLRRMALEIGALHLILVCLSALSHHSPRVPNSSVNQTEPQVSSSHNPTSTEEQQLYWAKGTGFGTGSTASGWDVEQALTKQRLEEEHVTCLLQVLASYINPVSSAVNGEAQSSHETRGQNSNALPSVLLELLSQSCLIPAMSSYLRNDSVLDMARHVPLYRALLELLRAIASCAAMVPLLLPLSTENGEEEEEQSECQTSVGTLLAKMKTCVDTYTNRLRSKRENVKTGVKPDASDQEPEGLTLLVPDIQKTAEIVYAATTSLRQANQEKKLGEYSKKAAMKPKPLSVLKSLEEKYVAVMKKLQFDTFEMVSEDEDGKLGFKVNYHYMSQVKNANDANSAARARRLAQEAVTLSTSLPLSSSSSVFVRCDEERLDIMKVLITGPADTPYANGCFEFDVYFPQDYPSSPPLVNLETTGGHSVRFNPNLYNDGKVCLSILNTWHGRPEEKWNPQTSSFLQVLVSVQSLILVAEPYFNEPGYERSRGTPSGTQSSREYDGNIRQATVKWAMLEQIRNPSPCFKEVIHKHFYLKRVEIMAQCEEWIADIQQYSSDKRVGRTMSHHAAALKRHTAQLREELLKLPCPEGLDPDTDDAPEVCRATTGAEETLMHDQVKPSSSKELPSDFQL

Columns and labels:
Experiment in all cases: log2 fold change, soluble protein after heating vs DMSO (PISA); higher = thermal stabilisation; K562 lysate, 10 uM; active = over 0.2 and 3.5 SD of the protein, either way, in both replicates (recomputed)
[1] = compound: CS(=O)(=O)CCNCc1ccc(-c2ccc3ncnc(Nc4ccc(OCc5cccc(F)c5)c(Cl)c4)c3c2)o1 [lapatinib]
How it was run: (§1)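 Values give the log-two fold change in thermal stability against solvent controls, from duplicates. Crude K562 extract at 1 mg/mL protein, made by dounce homogenisation in PBS pH 7.4 with 1 mM MgCl2, was treated with 10 μM compound for 30 min. After 3 min heating across 48°C-58°C, aliquots were pooled, adjusted to 0.5% NP-40 at 4°C and centrifuged at 21,000xg for 90 min. The supernatant was measured by TMTpro 16plex LC-MS/MS with channel sums equalised.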

[2] = compound: CS(=O)(=O)N1CCN(Cc2cc3nc(-c4cccc5[nH]ncc45)nc(N4CCOCC4)c3s2)CC1 [pictilisib]
How it was run: as §1

[3] = compound: C[C@@H](Oc1cc(-c2cnn(C3CCNCC3)c2)cnc1N)c1c(Cl)ccc(F)c1Cl [crizotinib]
How it was run: as §1

[4] = compound: C[C@H](C1=CC=C(C=C1)C(=O)NC2=C3C=CNC3=NC=C2)N
How it was run: as §1

[5] = compound: C[C@H](Nc1ncnc2nc[nH]c12)c1cc2cccc(Cl)c2c(=O)n1-c1ccccc1 [duvelisib]
How it was run: as §1

[6] = compound: Cc1cc(Nc2cc(CN3CCOCC3)c3nc(C)c(Cc4ccc(Cl)cc4F)n3n2)n[nH]1 [gandotinib]
How it was run: as §1

[7] = compound: Cc1cc(Nc2cc(N3CCN(C)CC3)nc(Sc3ccc(NC(=O)C4CC4)cc3)n2)n[nH]1 [tozasertib]
How it was run: as §1

[8] = compound: Cc1ccc(-n2nc(C(C)(C)C)cc2NC(=O)Nc2ccc(OCCN3CCOCC3)c3ccccc23)cc1 [doramapimod]
How it was run: as §1

[9] = compound: Cc1ccc(NC(=O)c2ccc(CN3CC[C@H](N(C)C)C3)c(C(F)(F)F)c2)cc1Nc1nccc(-c2cncnc2)n1 [bafetinib]
How it was run: as §1

[10] = compound: Cc1cccc(CC(=O)N2CCc3c2ccc(-c2cn(C)c4ncnc(N)c24)c3F)n1
How it was run: as §1

[11] = compound: Cc1cn(-c2cc(NC(=O)c3ccc(C)c(Nc4nccc(-c5cccnc5)n4)c3)cc(C(F)(F)F)c2)cn1 [nilotinib]
How it was run: as §1

[12] = compound: Cc1nc(Nc2n[nH]c3c2CN(C(=O)N[C@H](CN(C)C)c2ccccc2)C3(C)C)c2sccc2n1
How it was run: as §1

[13] = compound: Cc1nc(Nc2ncc(C(=O)Nc3c(C)cccc3Cl)s2)cc(N2CCN(CCO)CC2)n1 [dasatinib]
How it was run: as §1

[14] = compound: Cc1ncc(-c2ccnc(Nc3ccc(S(C)(=O)=O)cc3)n2)n1C(C)C
How it was run: as §1

[15] = compound: Cn1cc(-c2ccc3c(c2)CCN3C(=O)Cc2cccc(C(F)(F)F)c2)c2c(N)ncnc21
How it was run: as §1

[16] = compound: Cn1cc(CNCC2CCN(c3ncc(C(=O)NO)cn3)CC2)c2ccccc21 [quisinostat]
How it was run: as §1

[17] = compound: Cn1cncc1[C@@](N)(c1ccc(Cl)cc1)c1ccc2c(c1)c(-c1cccc(Cl)c1)cc(=O)n2C [tipifarnib]
How it was run: as §1

[18] = compound: NC(=O)Nc1cc(-c2cccc(F)c2)sc1C(=O)N[C@H]1CCCNC1
How it was run: as §1

[19] = compound: NC(=O)c1cnc(N[C@@H]2CCCC[C@@H]2N)nc1Nc1cccc(-n2nccn2)c1
How it was run: as §1

[20] = compound: NC1(c2ccc(-c3nc4ccn5c(=O)[nH]nc5c4cc3-c3ccccc3)cc2)CCC1
How it was run: as §1

Row | Target | log2 fold change [1] | log2 fold change [2] | log2 fold change [3] | log2 fold change [4] | log2 fold change [5] | log2 fold change [6] | log2 fold change [7] | log2 fold change [8] | log2 fold change [9] | log2 fold change [10] | log2 fold change [11] | log2 fold change [12] | log2 fold change [13] | log2 fold change [14] | log2 fold change [15] | log2 fold change [16] | log2 fold change [17] | log2 fold change [18] | log2 fold change [19] | log2 fold change [20]
1 | BLOC1S5 (UniProt Q8TDH9) | inactive: -0.025 | inactive: -0.047 | inactive: 0.038 | inactive: -0.024 | inactive: -0.039 | inactive: 0.036 | inactive: -0.034 | inactive: -0.01 | inactive: -0.041 | inactive: -0.036 | inactive: 0.033 | inactive: -0.019 | inactive: -0.001 | inactive: -0.003 | inactive: -0.005 | inactive: 0.003 | inactive: 0.036 | inactive: -0.017 | inactive: -0.002 | inactive: 0.015
2 | BAG1 (UniProt Q99933) | inactive: 0.003 | inactive: -0.014 | inactive: 0.02 | inactive: -0.104 | inactive: -0.05 | inactive: 0.154 | inactive: 0.047 | inactive: -0.028 | inactive: -0.037 | inactive: 0.108 | inactive: 0.007 | inactive: -0.008 | inactive: 0.163 | inactive: 0.045 | inactive: 0.023 | inactive: -0.018 | inactive: 0.029 | inactive: 0.003 | inactive: -0.029 | inactive: -0.024
3 | BROX (UniProt Q5VW32) | inactive: -0.034 | inactive: -0.06 | inactive: -0.009 | inactive: 0.023 | inactive: 0.014 | inactive: -0.097 | inactive: 0.006 | inactive: 0.023 | inactive: -0.017 | inactive: -0.049 | inactive: 0.031 | inactive: -0.042 | inactive: -0.031 | inactive: -0.004 | inactive: 0.004 | inactive: 0.001 | inactive: -0.005 | inactive: 0.007 | inactive: -0.015 | inactive: 0.008
4 | BCL7A isoform 2 (UniProt Q4VC05) | inactive: -0.012 | inactive: -0.031 | inactive: 0.074 | inactive: 0.08 | inactive: -0.032 | inactive: -0.063 | inactive: 0.015 | inactive: 0.007 | inactive: 0.044 | inactive: -0.104 | inactive: -0.032 | inactive: 0.005 | inactive: 0.061 | inactive: -0.05 | inactive: 0.079 | inactive: 0.04 | inactive: 0.007 | inactive: -0.018 | inactive: 0.04 | inactive: 0.037
5 | BLOC1S2 (UniProt Q6QNY1) | inactive: 0.029 | inactive: -0.084 | inactive: -0.259 | inactive: -0.026 | inactive: 0.145 | inactive: 0.144 | inactive: 0.145 | inactive: -0.003 | inactive: -0.032 | inactive: 0.052 | inactive: -0.051 | inactive: 0.099 | inactive: -0.082 | inactive: -0.082 | inactive: 0.043 | inactive: -0.123 | inactive: -0.103 | inactive: -0.096 | inactive: -0.005 | inactive: 0.067
6 | BCL2L12 (UniProt Q9HB09) | inactive: 0.164 | inactive: -0.184 | inactive: 0.01 | inactive: 0.045 | inactive: 0.009 | inactive: -0.003 | inactive: -0.056 | inactive: -0.016 | inactive: -0.296 | inactive: 0.057 | inactive: -0.12 | inactive: -0.007 | inactive: -0.129 | inactive: -0.004 | inactive: 0.046 | inactive: 0.022 | inactive: 0.075 | inactive: -0.041 | inactive: 0.121 | inactive: 0.013
7 | BPHL (UniProt Q86WA6) | inactive: -0.099 | active: -0.366 | inactive: 0.099 | inactive: 0.051 | inactive: 0.061 | inactive: -0.077 | inactive: 0.034 | inactive: -0.003 | inactive: 0.132 | inactive: -0.058 | inactive: -0.049 | inactive: 0.084 | inactive: 0.008 | inactive: -0.043 | inactive: 0.055 | inactive: -0.02 | inactive: 0.01 | inactive: -0.03 | inactive: 0.016 | inactive: 0.022
8 | BLMH (UniProt Q13867) | inactive: -0.031 | inactive: 0.015 | inactive: 0.016 | inactive: -0.022 | inactive: -0.002 | inactive: 0.088 | inactive: -0.004 | inactive: 0.005 | inactive: 0.057 | inactive: 0.015 | inactive: -0.002 | inactive: -0.024 | inactive: 0.04 | inactive: -0.025 | inactive: -0.006 | inactive: -0.044 | inactive: -0.033 | inactive: 0 | inactive: -0.017 | inactive: 0.025
9 | BCCIP (UniProt Q9P287) | inactive: 0.004 | inactive: 0.005 | inactive: 0.097 | inactive: 0.027 | inactive: 0.013 | inactive: -0.048 | inactive: -0.058 | inactive: -0.036 | inactive: -0.019 | inactive: 0.009 | inactive: 0.003 | inactive: -0.002 | inactive: 0.031 | inactive: 0.039 | inactive: 0.006 | inactive: 0.115 | inactive: -0.001 | inactive: -0.009 | inactive: -0.004 | inactive: 0.019
10 | BABAM2 (UniProt Q9NXR7) | inactive: 0.007 | inactive: -0.047 | inactive: 0.006 | inactive: -0.088 | inactive: -0.022 | inactive: 0.031 | inactive: 0.006 | inactive: -0.049 | inactive: 0.026 | inactive: 0.03 | inactive: 0.015 | inactive: -0.018 | inactive: -0.009 | inactive: -0.018 | inactive: -0.026 | inactive: 0.008 | inactive: -0.014 | inactive: 0.025 | inactive: 0.002 | inactive: 0.004
11 | BCCIP isoform 2 (UniProt Q9P287) | inactive: 0.031 | inactive: -0.016 | inactive: 0.025 | inactive: 0.083 | inactive: 0.023 | inactive: -0.066 | inactive: 0.042 | inactive: 0.013 | inactive: -0.025 | inactive: -0.077 | inactive: -0.024 | inactive: 0.012 | inactive: 0.014 | inactive: 0.013 | inactive: 0.02 | inactive: 0.018 | inactive: -0.011 | inactive: -0.01 | inactive: -0.016 | inactive: 0.055
12 | BCKDHB (UniProt P21953) | inactive: 0.005 | inactive: -0.043 | inactive: -0.055 | inactive: 0.083 | inactive: 0.026 | inactive: 0.015 | inactive: 0.09 | inactive: 0.064 | inactive: -0.052 | inactive: -0.017 | inactive: 0.068 | inactive: 0.007 | inactive: 0.062 | inactive: 0.084 | inactive: 0.039 | inactive: 0.031 | inactive: -0.069 | inactive: -0.005 | inactive: 0.007 | inactive: -0.039
13 | BIRC6 (UniProt Q9NR09) | inactive: -0.028 | inactive: -0.025 | inactive: -0.024 | inactive: -0.033 | inactive: 0.021 | inactive: -0.02 | inactive: -0.009 | inactive: 0.006 | inactive: -0.028 | inactive: 0.037 | inactive: -0.004 | inactive: 0.005 | inactive: -0.002 | inactive: 0.012 | inactive: 0.01 | inactive: 0.009 | inactive: 0.012 | inactive: 0.014 | inactive: 0 | inactive: 0.018
14 | BTF3L4 (UniProt Q96K17) | inactive: -0.015 | inactive: 0.011 | inactive: 0.052 | inactive: -0.114 | inactive: 0.018 | inactive: 0.085 | inactive: -0.039 | inactive: -0.046 | inactive: 0.136 | inactive: 0.017 | inactive: -0.006 | inactive: -0.009 | inactive: -0.013 | inactive: -0.014 | inactive: -0.053 | inactive: -0.005 | inactive: 0.016 | inactive: 0.055 | inactive: -0.035 | inactive: 0.024
15 | BTF3 (UniProt P20290) | inactive: 0.004 | inactive: 0.016 | inactive: 0.036 | inactive: 0.011 | inactive: 0.025 | inactive: 0.001 | inactive: -0.013 | inactive: -0.034 | inactive: -0.009 | inactive: -0.035 | inactive: -0.013 | inactive: 0.019 | inactive: 0 | inactive: -0.014 | inactive: -0.002 | inactive: 0.004 | inactive: 0.03 | inactive: -0.018 | inactive: -0.022 | inactive: -0.005
16 | B4GALT3 (UniProt O60512) | inactive: 0.197 | inactive: -0.134 | inactive: 0.036 | inactive: 0.071 | inactive: -0.012 | inactive: -0.11 | inactive: 0.081 | inactive: 0.008 | inactive: -0.053 | inactive: -0.064 | inactive: 0.055 | inactive: 0.009 | inactive: 0.029 | inactive: 0.009 | inactive: 0.043 | inactive: 0.099 | inactive: -0.082 | inactive: -0.044 | inactive: 0.047 | inactive: -0.003

Pulled one by one from above, two records:
Row | Target | log2 fold change [1] | log2 fold change [2] | log2 fold change [3] | log2 fold change [4] | log2 fold change [5] | log2 fold change [6] | log2 fold change [7] | log2 fold change [8] | log2 fold change [9] | log2 fold change [10] | log2 fold change [11] | log2 fold change [12] | log2 fold change [13] | log2 fold change [14] | log2 fold change [15] | log2 fold change [16] | log2 fold change [17] | log2 fold change [18] | log2 fold change [19] | log2 fold change [20]
6 | BCL2L12 (UniProt Q9HB09) | inactive: 0.164 | inactive: -0.184 | inactive: 0.01 | inactive: 0.045 | inactive: 0.009 | inactive: -0.003 | inactive: -0.056 | inactive: -0.016 | inactive: -0.296 | inactive: 0.057 | inactive: -0.12 | inactive: -0.007 | inactive: -0.129 | inactive: -0.004 | inactive: 0.046 | inactive: 0.022 | inactive: 0.075 | inactive: -0.041 | inactive: 0.121 | inactive: 0.013
13 | BIRC6 (UniProt Q9NR09) | inactive: -0.028 | inactive: -0.025 | inactive: -0.024 | inactive: -0.033 | inactive: 0.021 | inactive: -0.02 | inactive: -0.009 | inactive: 0.006 | inactive: -0.028 | inactive: 0.037 | inactive: -0.004 | inactive: 0.005 | inactive: -0.002 | inactive: 0.012 | inactive: 0.01 | inactive: 0.009 | inactive: 0.012 | inactive: 0.014 | inactive: 0 | inactive: 0.018
